Test results: patent publication US9445596B2, “Small molecule compounds for the control of nematodes” (California Institute of Technology, priority 2011, dated 2016)

Test system: daf-22(m130) worms
Experiment: Ascaroside feeding experiment with daf-22(m130)
Format: in vivo, C. elegans
Details: 5 μM per culture; incubated for 5 days; LC-MS

Row | Structure (SMILES) | conversion into indole ascarosides by daf-22(m130) worms
1 | CC1O[C@@H](O[C@H](C)CCCC/C=C/C(=O)O)[C@@H](O)C[C@H]1O (some centres unmarked) [ascr#3] | convert added ascr#3 into icas#3
2 | CC1O[C@@H](O[C@H](C)CCCCCCC(=O)O)C(O)C[C@H]1O (some centres unmarked) [ascr#10] | preferred over conversion of (ω)-ascaroside oscr#10
